Measured data: PubChem BioAssay AID1224828 (NIAID, 2016)

Assay: 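Knock-downs that increase or decrease LPS-induced p65 nuclear translocation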 (primary screen)
Cells: mouse RAW264.7 G9 macrophage reporter cells (GFP-p65, Tnf promoter-mCherry)
Reagents: siRNA pool against mouse genes, 100 nM
Timing: 2 days siRNA transfection, then 40 min LPS before fixation
Treatment: LPS (Salmonella minnesota R595) at 10 ng/ml
Measured: 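Imaged p65 nuclear translocation ratio, normalised to the plate median, converted to robust z-scores and averaged across two replicates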
Direction: p65 translocation robust z-score: higher = more nuclear NF-kappaB p65 after LPS than the plate median; nuclear/cytoplasmic p65 ratio: higher = more nuclear NF-kappaB p65
Hit rule: 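Active if robust z is above 3.3 (negative regulators) or below -1.56, the Tlr4 control median (positive regulators); activity score 50 or more; control wells not called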
Calls: active = hit (p65 shift raised or lowered); inactive = no clear change
The whole screen tested about 17,000 reagents; below is a part drawn at random. 762 of all reagents (4.5%) were called active. 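Active calls include both raised and lowered p65 entry, mostly lowered; wells with fewer than 50 cells lack a z-score.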 Raw values are not corrected between plates.

gene knocked down	p65 translocation robust z-score	nuclear/cytoplasmic p65 ratio, rep 1	nuclear/cytoplasmic p65 ratio, rep 2	low cell count flag	Call
Slc29a2 (GeneID 13340)		1.4	1.06	fewer than 50 cells per well; well left out of scoring	inactive
Acrv1 (GeneID 11451)	0.29	1.68	1.7	enough cells to score	inactive
Tmem63a (GeneID 208795)	0.51	1.36	1.93	enough cells to score	inactive
Cpd (GeneID 12874)	0.04	1.43	1.43	enough cells to score	inactive
Ier2 (GeneID 15936)	0.22	1.62	1.43	enough cells to score	inactive
Runx1t1 (GeneID 12395)	-0.72	1.29	1.36	enough cells to score	inactive
1810018F18Rik (GeneID 69166)	-0.71	1.3	1.59	enough cells to score	inactive
Fhad1 (GeneID 329977)	-0.08	1.59	1.5	enough cells to score	inactive
Nt5c (GeneID 50773)	1.77	2.06	1.72	enough cells to score	inactive
Or6s1 (GeneID 404319)	-0.48	1.38	1.22	enough cells to score	inactive
Ncbp2as2 (GeneID 106264)	-1.02	1.35	1.36	enough cells to score	inactive
Kdm4b (GeneID 193796)		1.32	0.996	fewer than 50 cells per well; well left out of scoring	inactive
Scg5 (GeneID 20394)	-0.03	1.53	1.56	enough cells to score	inactive
Cd46 (GeneID 17221)	0.47	1.5	1.47	enough cells to score	inactive
Armc8 (GeneID 74125)	-0.14	1.58	1.61	enough cells to score	inactive
Gria3 (GeneID 53623)	0.46	1.47	1.45	enough cells to score	inactive
Tas2r109 (GeneID 387343)	-0.12	1.35	1.01	enough cells to score	inactive
Cdh6 (GeneID 12563)	0.92	1.56	1.53	enough cells to score	inactive
Nicn1 (GeneID 66257)	0.19	1.72	1.57	enough cells to score	inactive
Phxr5 (GeneID 18690)	0.69	1.51	1.34	enough cells to score	inactive
Prss21 (GeneID 57256)	-0.31	1.31	1.2	enough cells to score	inactive
Ahr (GeneID 11622)	1.58	1.85	1.87	enough cells to score	inactive

Targets above whose gene name begins with A or a:
gene knocked down	p65 translocation robust z-score	nuclear/cytoplasmic p65 ratio, rep 1	nuclear/cytoplasmic p65 ratio, rep 2	low cell count flag	Call
Acrv1 (GeneID 11451)	0.29	1.68	1.7	enough cells to score	inactive
Armc8 (GeneID 74125)	-0.14	1.58	1.61	enough cells to score	inactive
Ahr (GeneID 11622)	1.58	1.85	1.87	enough cells to score	inactive

The list goes on:
gene knocked down	p65 translocation robust z-score	nuclear/cytoplasmic p65 ratio, rep 1	nuclear/cytoplasmic p65 ratio, rep 2	low cell count flag	Call
Pgam2 (GeneID 56012)	-2.01	1.15	1.14	enough cells to score	active
Cic (GeneID 71722)	-1.29	1.43	1.54	enough cells to score	inactive
Sh3glb1 (GeneID 54673)	0.49	1.56	1.23	enough cells to score	inactive
C130023O10Rik (GeneID 320230)	1.02	1.54	1.69	enough cells to score	inactive
Itsn1 (GeneID 16443)	0.11	1.5	1.39	enough cells to score	inactive
Tomm7 (GeneID 66169)		1.11	0.948	fewer than 50 cells per well; well left out of scoring	inactive
Nars2 (GeneID 244141)	1.9	1.91	1.96	enough cells to score	inactive
Zfp825 (GeneID 235956)	-1.78	1.27	1.59	enough cells to score	active
Itga10 (GeneID 213119)	-1.5	1.25	1.21	enough cells to score	inactive
Tjp1 (GeneID 21872)	0.69	1.53	1.7	enough cells to score	inactive
Gzmk (GeneID 14945)	1.01	1.79	1.7	enough cells to score	inactive
Ntng2 (GeneID 171171)	0.19	1.77	1.54	enough cells to score	inactive
Rin3 (GeneID 217835)		1.19	1.17	fewer than 50 cells per well; well left out of scoring	inactive
Ptpn20 (GeneID 19256)		1.65	1.51	fewer than 50 cells per well; well left out of scoring	inactive
Xpnpep2 (GeneID 170745)	-0.47	1.49	1.4	enough cells to score	inactive
Dusp15 (GeneID 252864)	-0.12	1.54	1.29	enough cells to score	inactive
Efcab5 (GeneID 319634)	-0.39	1.21	1.26	enough cells to score	inactive
Usp49 (GeneID 224836)	-1.36	1.28	1.34	enough cells to score	inactive
